Values from PubChem BioAssay AID1259254 (NCATS, 2017).

Screen: 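Genome-wide screen for genes that prevent DNA re-replication in cancer cells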 (primary screen)
Cells: human HCT116 colorectal cancer cells
Reagents: single siRNA against human genes
Timing: 3 days
Read-out: 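Imaged Hoechst DNA stain sorts each cell into a cycle phase by DNA amount; per plate, G2 fraction set to 0% for non-targeting and 100% for GMNN siRNA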
Direction: G2 robust z-score and G2 cells, % of GMNN control: higher = more G2 cells, more excess DNA replication
Active means: 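Active siRNAs have a G2 robust z of 5 or more median absolute deviations over the median, which in these data means about 38% or higher of GMNN control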
In all, the deposit lists about 59,000 reagents; this is a random part of them. In the full data, about 1,550 (2.6%) got an active call. 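G2 share is only a proxy for re-replication; each gene was hit by three separate siRNAs, and active genes were retested.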 A number with no mark means an inactive call. Reagents against one gene are numbered here. Further read-outs or replicates are left out here. No sequences are given here. Not given: the amount of reagent.

CPN1 (carboxypeptidase N subunit 1) #1 → G2 robust z-score = 6.97 (active); G2 cells, % of GMNN control = 52
CPN1 (carboxypeptidase N subunit 1) #2 → G2 robust z-score = 1.96; G2 cells, % of GMNN control = 16.8
CPN1 (carboxypeptidase N subunit 1) #3 → G2 robust z-score = 1.76; G2 cells, % of GMNN control = 15.3
CFAP161 (cilia and flagella associated protein 161) #1 → G2 robust z-score = 0.107; G2 cells, % of GMNN control = 3.72
CFAP161 (cilia and flagella associated protein 161) #2 → G2 robust z-score = -0.411; G2 cells, % of GMNN control = 0.0769
CFAP161 (cilia and flagella associated protein 161) #3 → G2 robust z-score = -0.659; G2 cells, % of GMNN control = -1.67
SMIM23 (small integral membrane protein 23) #1 → G2 robust z-score = 2.08; G2 cells, % of GMNN control = 17.6
SMIM23 (small integral membrane protein 23) #2 → G2 robust z-score = -0.199; G2 cells, % of GMNN control = 1.56
SMIM23 (small integral membrane protein 23) #3 → G2 robust z-score = -0.824; G2 cells, % of GMNN control = -2.83
POLR1G (RNA polymerase I subunit G) #1 → G2 robust z-score = -0.275; G2 cells, % of GMNN control = 1.03
POLR1G (RNA polymerase I subunit G) #2 → G2 robust z-score = 0.835; G2 cells, % of GMNN control = 8.84
POLR1G (RNA polymerase I subunit G) #3 → G2 robust z-score = 0.594; G2 cells, % of GMNN control = 7.15
LOC728805 (retired record) #1 → G2 robust z-score = -0.958; G2 cells, % of GMNN control = -3.77
LOC728805 (retired record) #2 → G2 robust z-score = 0.0592; G2 cells, % of GMNN control = 3.38
LOC728805 (retired record) #3 → G2 robust z-score = 0.382; G2 cells, % of GMNN control = 5.65
EPS8L1 (EPS8 signaling adaptor L1) #1 → G2 robust z-score = 0.331; G2 cells, % of GMNN control = 5.3
EPS8L1 (EPS8 signaling adaptor L1) #2 → G2 robust z-score = 1.29; G2 cells, % of GMNN control = 12.1
EPS8L1 (EPS8 signaling adaptor L1) #3 → G2 robust z-score = -1.03; G2 cells, % of GMNN control = -4.3

Quoted from above (2 entries):
EPS8L1 (EPS8 signaling adaptor L1) #1 → G2 robust z-score = 0.331; G2 cells, % of GMNN control = 5.3
EPS8L1 (EPS8 signaling adaptor L1) #2 → G2 robust z-score = 1.29; G2 cells, % of GMNN control = 12.1
